Source: patent US7259177B2, “Cycloalkylmethoxy-substituted acetic acid derivatives, processes for their preparation and their use as pharmaceuticals” (Sanofi-Aventis Deutschland GmbH, priority 2003, dated 2007)
Counter-ions that a name gives are not always drawn. Some entries share one result that the patent states for a list of compounds.

Target: T1, human PPARα (Homo sapiens, UniProt Q07869)
T1 construct: amino acids S167-Y468; expressed in transfected cells; host or cells: HEK (human embryo kidney) cells, stably transfected with pcDNA3 carrying the fusion construct
T1 sequence (Q07869 167-468): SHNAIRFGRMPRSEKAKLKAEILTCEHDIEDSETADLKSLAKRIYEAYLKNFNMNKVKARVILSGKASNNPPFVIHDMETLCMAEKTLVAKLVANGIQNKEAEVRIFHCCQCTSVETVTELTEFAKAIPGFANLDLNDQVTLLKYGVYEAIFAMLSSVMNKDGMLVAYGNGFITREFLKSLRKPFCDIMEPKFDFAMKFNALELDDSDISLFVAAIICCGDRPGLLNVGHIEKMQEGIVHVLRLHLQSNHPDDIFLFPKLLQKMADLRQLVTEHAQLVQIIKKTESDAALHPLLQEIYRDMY
Test: Cellular PPARalpha assay (stably transfected HEK PPARalpha reporter cell line, luciferase)
Format: cell-based
Settings: range over the examples; each bound printed with its own unit (nm, μM)
Procedure: (A) Determination of EC50 Values of PPAR Agonists in the Cellular PPARalpha Assay
The potency of substances that bind to human PPARα and activate in an agonistic manner is analyzed using a stably transfected HEK cell line (HEK=human embryo kidney) which is referred to here as PPARalpha reporter cell line. It contains two genetic elements, a luciferase reporter element (pΔM-GAL4-Luc-Zeo) and a PPARalpha fusion protein (GR-GAL4-humanPPARα-LBD) that mediates expression of the luciferase reporter element depending on a PPARalpha ligand. The stably and constitutively expressed fusion protein GR-GAL4-humanPPARalpha-LBD binds in the cell nucleus of the PPARalpha reporter cell line via the GAL4 protein portion to the GAL4 DNA binding motifs 5′-upstream of the luciferase reporter element which is integrated in the genome of the cell line. There is only little expression of the luciferase reporter gene without addition of a PPARalpha ligand if fatty acid-depleted fetal calf serum (cs-FCS) is used in the assay. PPARα ligands bind and activate the PPARα fusion protein and thereby bring about expression of the luciferase reporter gene. The luciferase which is formed can be detected by means of chemiluminescence via an appropriate substrate.
The PPARalpha reporter cell line was prepared in 2 stages. Firstly, the luciferase reporter element was constructed and stably transfected into HEK cells. For this purpose, five binding sites of the yeast transcription factor GAL4 (each 5′-CGGAGTACTGTCCTCCGAG-3′ (SEQ ID NO:1)) were cloned in 5′-upstream of a 68 bp-long minimal MMTV promoter (Genbank Accession # V01175). The minimal MMTV promoter section contains a CCAAT box and a TATA element in order to enable efficient transcription by RNA polymerase II. The cloning and sequencing of the GAL4-MMTV construct took place in analogy to the description of Sambrook J. et. al. (Molecular cloning, Cold Spring Harbor Laboratory Press, 1989). Then the complete Photinus pyralis gene (Genbank Accession # M15077) was cloned in 3′-downstream of the GAL4-MMTV element. After sequencing, the luceriferase reporter element consisting of five GAL4 binding sites, MMTV promoter and luciferase gene was recloned into a plasmid which confers zeocin resistance in order to obtain the plasmid pΔM-GAL4-Luc-Zeo. This vector was transfected into HEK cells in accordance with the statements in Ausubel, F. M. et al. (Current protocols in molecular biology, Vol.1-3, John Wiley & Sons, Inc., 1995). […] In a second step, the PPARalpha fusion protein (GR-GAL4-humanPPARalpha-LBD) was introduced into the stable cell clone described. For this purpose, initially the cDNA coding for the N-terminal 76 amino acids of the glucocorticoid receptor (Genbank Accession # P04150) was linked to the cDNA section coding for amino acids 1-147 of the yeast transcription factor GAL4 (Genbank Accession # P04386). The cDNA of the ligand-binding domain of the human PPARalpha receptor (amino acids S167-Y468; Genbank Accession # S74349) was cloned in at the 3′-end of this GR-GAL4 construct. The fusion construct prepared in this way (GR-GAL4-humanPPARalpha-LBD) was recloned into the plasmid pcDNA3 (from Invitrogen) in order to enable constitutive expression therein by the cytomegalovirus promoter. This plasmid was linearized with a restriction endonuclease and stably transfected into the previously described cell clone containing the luciferase reporter element. The finished PPARalpha reporter cell line that contains a luciferase reporter element and constitutively expresses the PPARalpha fusion protein (GR-GAL4-human PPARalpha-LBD) was isolated by selection with zeocin (0.5 mg/ml) and G418 (0.5 mg/ml).
The activity of PPARalpha agonists is determined in a 3-day assay described below: […]

Compound | EC50
COc1ccc(COC(=O)N(CCC2CCCC(OCc3nc(-c4cccc(C)c4)oc3C)C2)[C@](C)(Cc2ccccc2)C(=O)O)cc1 (mixture of isomers) [Example 82, (R)-2-((4-methoxybenzyloxycarbonyl)-{2-[cis-3-(5-methyl-2-m-tolyloxazol-4-ylmethoxy)cyclohexyl]ethyl}amino)-2-methyl-3-phenylpropionic acid] | ≥ 0.07 nM
Cc1ccc(-c2nc(COC[C@@H]3CCC[C@H](COC(C)(C)C(=O)O)C3)c(C)o2)cc1 (relative stereo) [Example 55, 2-[cis-3-(5-Methyl-2-p-tolyloxazol-4-ylmethoxymethyl)cyclohexylmethoxy]-2-methylpropionic acid] | ≥ 0.07 nM
CCc1oc(-c2ccc(C)cc2)nc1COC[C@@H]1CCC[C@H](COC(C)(C)C(=O)O)C1 (relative stereo) [Example 65, 2-[cis-3-(5-ethyl-2-p-tolyloxazol-4-ylmethoxy-methyl)cyclohexylmethoxy]-2-methylpropionic acid] | ≥ 0.07 nM
Cc1ccc(-c2nc(CO[C@@H]3CCC[C@H](CSC(C)(C)C(=O)O)C3)c(C)o2)cc1 (relative stereo) [Example 27, 2-[cis-3-(5-methyl-2-p-tolyloxazol-4-ylmethoxy)cyclohexylmethylsulfanyl]-2-methylpropionic acid] | ≥ 0.07 nM
Cc1ccc(-c2nc(CO[C@@H]3CCC[C@H](CCC(C)(C)C(=O)O)C3)c(C)o2)cc1 (relative stereo) [Example 71, 2,2-Dimethyl-4-[cis-3-(5-methyl-2-p-tolyloxazol-4-ylmethoxy)cyclohexyl]-butyric Acid] | ≥ 0.07 nM
COc1cccc(-c2nc(CO[C@@H]3CCC[C@H](CCC(C)C(=O)O)C3)c(C)o2)c1 (relative stereo) [Example 68, 4-{cis-3-[2-(3-methoxyphenyl)-5-methyloxazol-4-ylmethoxy]cyclohexyl}-2-methylbutyric acid] | ≥ 0.07 nM
CCC(C)(OCC1CCCC(COCc2nc(-c3ccc(C)cc3)oc2C)C1)C(=O)O (stereo not drawn) [Example 56, 2-[cis-3-(5-methyl-2-p-tolyloxazol-4-ylmethoxymethyl)cyclohexylmethoxy]-3-methylbutyric acid] | ≥ 0.07 nM
Cc1ccc(-c2nc(CO[C@@H]3CCC[C@H](COC(C)C(=O)O)C3)c(C)o2)cc1 (relative stereo) [Example 2, 2-[cis-3-(5-methyl-2-p-tolyloxazol-4-ylmethoxy)cyclohexyl-methoxy]propionic acid] | ≥ 0.07 nM
COc1ccc(COC(=O)N(CC[C@H]2CCC[C@@H](OCc3nc(-c4cccc(C)c4)oc3C)C2)C2(C(=O)O)CCCC2)cc1 (relative stereo) [Example 81, 1-((4-methoxybenzyloxycarbonyl)-{2-[cis-3-(5-methyl-2-m-tolyloxazol-4-yl-methoxy)cyclohexyl]ethyl}amino)cyclopentanecarboxylic acid] | ≥ 0.07 nM
Cc1cccc(-c2nc(CO[C@@H]3CCC[C@H](CCN(CC(=O)O)C(=O)OCc4ccccc4)C3)c(C)o2)c1 (relative stereo) [Example 83, (benzyloxycarbonyl-{2-[cis-3-(5-methyl-2-m-tolyl-oxazol-4-ylmethoxy)cyclohexyl]ethyl}amino)acetic acid] | ≥ 0.07 nM
CCc1oc(-c2ccc3ccccc3c2)nc1COC[C@@H]1CCC[C@H](COC(C)(C)C(=O)O)C1 (racemic) [Example 64, 2-[cis-3-(5-ethyl-2-(2-naphthyl)oxazol-4-yl-methoxymethyl)cyclohexylmethoxy]-2-methylpropionic acid] | ≥ 0.07 nM
CCCCCC(C(=O)O)S(=O)(=O)CC1CCCC(OCc2nc(-c3ccc(C)cc3)oc2C)C1 (stereo not drawn) [Example 38, 2-[cis-3-(5-methyl-2-p-tolyloxazol-4-ylmethoxy)cyclohexylmethylsulfonyl]heptanoic acid] | ≥ 0.07 nM
Cc1ccc(-c2nc(CO[C@@H]3CCC[C@H](COC(C)(C)C(=O)O)C3)c(C)o2)o1 (racemic) [Example 13, 2-methyl-2-{(1R,3S)-cis-3-[5-methyl-2-(5-methylfuran-2-yl)-oxazol-4-ylmethoxy]cyclohexylmethoxy}propionic acid] | ≥ 0.07 nM
Cc1ccc(-c2nc(CO[C@@H]3CCC[C@H](CS(=O)(=O)CC(=O)O)C3)c(C)o2)cc1 (racemic) [Example 37] | ≥ 0.07 nM
CCC(SCC1CCCC(OCc2nc(-c3ccc(C)cc3)oc2C)C1)C(=O)O (stereo not drawn) [Example 24, 2-[cis-3-(5-methyl-2-p-tolyloxazol-4-ylmethoxy)cyclohexylmethylsulfanyl]butyric acid] | ≥ 0.07 nM
CCCC(C(=O)O)S(=O)(=O)CC1CCCC(OCc2nc(-c3ccc(C)cc3)oc2C)C1 (stereo not drawn) [Example 41, 2-[cis-3-(5-methyl-2-p-tolyloxazol-4-ylmethoxy)cyclohexylmethylsulfonyl]valeric acid] | ≥ 0.07 nM
Cc1ccc(-c2nc(COC3CCCC(C[S+]([O-])C(C(=O)O)C(C)C)C3)c(C)o2)cc1 (stereo not drawn) [Example 35, 2-[cis-3-(5-methyl-2-p-tolyloxazol-4-ylmethoxy)cyclohexylmethylsulfinyl]-3-methylbutyric acid] | ≥ 0.07 nM
Cc1ccc(-c2nc(COC3CCCC(CN[C@H](C(=O)O)C(C)C)C3)c(C)o2)cc1 (mixture of isomers) [Example 42, (S)-3-Methyl-2{[cis-3-(5-methyl-2-p-tolyloxazol-4-ylmethoxy)cyclohexyl-methyl]amino}butyric acid] | ≥ 0.07 nM
Cc1ccc(-c2nc(COC3CCCC(CN(Cc4ccccc4)[C@H](C(=O)O)C(C)C)C3)c(C)o2)cc1 (mixture of isomers) [Example 51, (S)-2-{benzyl-[cis-3-(5-methyl-2-p-tolyloxazol-4-ylmethoxy)-cyclohexylmethyl]amino}-3-methylbutyric acid trifluoroacetic acid salt] | ≥ 0.07 nM
Cc1oc(-c2ccc(F)cc2)nc1CO[C@@H]1CCC[C@H](COC(C)(C)C(=O)O)C1 (relative stereo) [Example 10, 2-{cis-3-[2-(4-Fluorophenyl)-5-methyloxazol-4-ylmethoxy]cyclohexyl-methoxy}-2-methylpropionic acid] | ≥ 0.07 nM
Cc1ccc(-c2nc(COC3CCCC(CN([C@H](C(=O)O)C(C)C)S(C)(=O)=O)C3)c(C)o2)cc1 (mixture of isomers) [Example 45, (S)-2-{methylsulfonyl-[cis-3-(5-methyl-2-p-tolyloxazol-4-ylmethoxy)cyclohexylmethyl]amino}-3-methylbutyric acid] | ≥ 0.07 nM
Cc1ccc(-c2nc(CO[C@@H]3CCC[C@H](CCC(C(=O)O)C(C)C)C3)c(C)o2)cc1 (relative stereo) [Example 73, 3-Methyl-2-{2-[cis-3-(5-methyl-2-p-tolyloxazol-4-ylmethoxy)cyclohexyl]-ethyl}butyric Acid] | ≥ 0.07 nM
Cc1ccc(-c2nc(COC3CCCC(C[S+]([O-])CC(=O)O)C3)c(C)o2)cc1 (stereo not drawn) [Example 32, cis-3-(5-Methyl-2-p-tolyloxazol-4-ylmethoxy)cyclohexylmethylsulfinyl]acetic acid] | ≥ 0.07 nM
CCCC(SCC1CCCC(OCc2nc(-c3ccc(C)cc3)oc2C)C1)C(=O)O (stereo not drawn) [Example 30, 2-[cis-3-(5-methyl-2-p-tolyloxazol-4-ylmethoxy)cyclohexylmethylsulfanyl]valeric acid] | ≥ 0.07 nM
